The results in this text go back to PubChem BioAssay AID2685 (National Center for Advancing Translational Sciences (NCATS), 2010).

The experiment is described as follows: qHTS Assay for Lipid Storage Modulators in Drosophila S3 Cells.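 As to cell number change: cells counted by Cell Tracker Red CMTPX staining in the red channel.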 As to conditions: BODIPY lipid droplet fluorescence, 18-24 h; for cell number change: measured here: cell count max response, cells fed with added oleic acid. Summed up:
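Drosophila S3 cells got compounds at several concentrations plus oleic acid (400 uM solution). Laser-scanning cytometry with 488 nm excitation read lipid droplets at 500-530 nm and cells at 575-640 nm. Percent activity was relative to 20 uM Triacsin C.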
Background: In qHTS, concentration-response curves come from the screen itself.

The mark [1] stands for this setting: measured here: lipid fluorescence (Fed channel) AC50, cells fed with added oleic acid.
Where [2] appears, read: measured here: cell number channel AC50, cells fed with added oleic acid.

Some of the results follow. Further columns of the screen follow, without active or inactive calls. Most of these compounds were active or inconclusive in the main read-out, so they are no random draw. Words in brackets tell the shape of the fitted curve; partial curves, single points and poor fits give uncertain potencies.

As to `Cc1ccc(-c2nc(CS(=O)(=O)CC(=O)NC3CC3)c(C)o2)cc1`, the cell number change came to 24.2%. Also, under setting [1], the AC50 (as a rule, the midpoint of the concentration-response curve, whichever way the signal moves) is 6.51 µM [falling, single point].
In the case of `Cc1onc(-c2ccccc2Cl)c1C(=O)NCc1nc(-c2ccccc2)no1`, the cell number change was -0.879%. Further, the AC50 under setting [1] was 29.1 µM [rising, partial curve, poor fit].
`COc1ccccc1COC(=O)c1cccc(S(=O)(=O)N2CCCC2)c1`: the cell number change is -10%.
As for `CC(=O)Nc1ccc(CN2CCN(C3CCCCC3)C(CCO)C2)cc1` (stereo not given), the cell number change is -2.91%. For the same molecule, under setting [1], the AC50 was 0.92 µM [falling, full curve, poor fit].
For `CN1C(=O)CSc2ccc(NC(=O)Nc3ccccn3)cc21`, the AC50 under setting [2] is 1.46 µM [rising, partial curve].
Consider `COCCCNC(=O)CC(NS(=O)(=O)c1ccc(Cl)cc1)c1ccco1` (stereo not given), for which, under setting [1], the AC50 is 0.206 µM [falling, full curve, poor fit].
With `Cc1oc(-c2ccccc2)nc1CS(=O)CC(=O)O` (stereo not given), the cell number change came out at 4.95%. Also, the AC50 under setting [1] is 0.0058 µM [falling, full curve, poor fit].
For the molecule `CC1(C)O[C@@H]2C[C@H]3[C@@H]4C[C@H](F)C5=CC(=O)CC[C@]5(C)[C@H]4[C@@H](O)C[C@]3(C)[C@]2(C(=O)CO)O1`, the cell number change was -26.4%. For the same molecule, the half-maximal activity concentration (AC50) under setting [1] is 20.6 µM [falling, single point].
For the molecule `O=C(NC1CCCCC1)N1CCCC(c2nc3ccccc3[nH]2)C1` (stereo not given), the cell number change worked out at 20.8%. Under setting [1], the AC50 was 14.6 µM [rising, partial curve].
With `CC(=O)c1ccc(N2CCN(C(=O)CCCn3c(=O)[nH]c4ccccc4c3=O)CC2)cc1`, the cell number change was -20.8%. Moreover, the AC50 under setting [2] is 0.13 µM [falling, full curve, poor fit].
Consider `CC(C)(C)C(=O)Cn1ncc(Br)c(Br)c1=O`, for which the cell number change is -37.1%. The concentration at half-maximal activity (AC50) under setting [2] was 3.66 µM [falling, full curve].
`Cc1ccc(C23CC4CC(CC(C(N)=O)(C4)C2)C3)cc1`: the cell number change was -18.6%.
As for `COCC1CCN(C(=O)C2CCC(=O)N(C3CCCC3)C2)CC1` (stereo not given), the cell number change was 0.612%. For the same molecule, the AC50 under setting [1] was 4.11 µM [falling, single point].
Regarding `COC(=O)[C@@H](NC(=O)O[C@H]1C(=O)c2ccc(OC)cc2O[C@@H]1c1ccc2c(c1)OCO2)C(C)C`, the cell number change was determined as 22.6%. In addition, the AC50 under setting [1] was 1.03 µM [rising, full curve].
Turning to `O=C(NNc1ccccc1[N+](=O)[O-])Nc1ccc(Cl)c(Cl)c1`, the cell number change came to 0.334%.
Turning to `CC1CCC(NC(=O)C(NS(=O)(=O)c2cccc3nsnc23)C(C)C)CC1` (stereo not given), the cell number change is -54%. Also, the AC50 under setting [2] is 29.1 µM [falling, single point].
Regarding `Cc1ccc(OCc2nnc(N)s2)cc1`, the cell number change was 1.74%.
Regarding `COc1ccc(NS(=O)(=O)c2ccc(O)c(NC(=O)c3cc4c(C)nn(-c5ccc(F)cc5)c4s3)c2)cc1`, the cell number change was -78.4%. Also, the AC50 under setting [2] was 29.1 µM [falling, single point]. Further, under setting [1], the AC50 was 18.4 µM [falling, single point].
Regarding `OC(COc1ccc2c(c1)CCC2)CN1CCN(c2ccccc2F)CC1` (stereo not given), the cell number change is -198%. For the same molecule, under setting [1], the AC50 is 0.00517 µM [falling, full curve, poor fit].
As to `Cc1c(Cl)cccc1NC(=O)CNC(=O)CCCc1nc2ccccc2c(=O)[nH]1`, the AC50 under setting [2] was 6.51 µM [rising, single point].
Turning to `O=C(CN1CCN(S(=O)(=O)N2CCCCC2)CC1)Nc1ccc(Br)cc1`, the cell number change is -14.1%. The AC50 under setting [1] is 1.16 µM [falling, partial curve, poor fit].
For `C/C=C(/C)C(=O)Nc1cccc(C2=NOC3(C2)C[C@@H](C(N)=O)N(C(=O)c2ccc(OC)cc2)C3)c1` (stereo not given in full), the cell number change came to 17.7%.
As for `O=[N+]([O-])c1cccc(CSc2cccc[n+]2[O-])c1`, the cell number change is -25.5%. Besides, under setting [2], the AC50 was 0.58 µM [falling, full curve, poor fit].
Turning to `COCCC(=O)N1CCCC(CCC(=O)NCc2ccc(F)c(F)c2)C1` (stereo not given), the cell number change was determined as 14.6%. The AC50 under setting [1] was 3.66 µM [falling, single point].
Consider `O=C(c1ccccn1)N1CCCC(N2CCN(c3cccc(C(F)(F)F)c3)CC2)C1` (stereo not given), for which, under setting [1], the AC50 was 0.58 µM [falling, single point].
As for `Clc1cccc(Cl)c1C[n+]1ccc2ccccc2c1`, the cell number change was -25.3%.
`Cc1nc2cccnc2nc1C`: the cell number change was found to be 10.6%. The AC50 under setting [1] is 0.651 µM [rising, partial curve, poor fit].
In the case of `Cc1ccc(-n2nnnc2SCC(=O)Nc2sccc2C#N)cc1`, under setting [1], the AC50 is 20.6 µM [rising, single point].
`c1cnc2nc(CSc3ncn[nH]3)cn2c1`: the cell number change was -35.8%.
Regarding `CCn1cc(C(=O)NN)c(=O)c2cc(F)c(N3CCCCC3)cc21`, the cell number change was -23.6%.
As for `CC1Cc2ccccc2N1C(=O)CN(C)CC(=O)Nc1ccc(OC(F)(F)F)cc1` (stereo not given), the cell number change is -30.3%. Also, the AC50 under setting [2] is 29.1 µM [falling, single point].
Regarding `O=C(CSc1ccc(-c2cccs2)nn1)NCCc1ccccc1`, the cell number change is 30.3%. Besides, the AC50 under setting [2] is 13 µM [rising, partial curve, poor fit]. For the same molecule, the half-maximal activity concentration (AC50) under setting [1] was 7.31 µM [rising, partial curve].
Consider `COc1cccc(NC(=O)CN(C)C(=O)CCNC(=O)c2ccccc2Cl)c1`, for which the cell number change turned out to be 26.4%. Besides, the AC50 under setting [1] was 7.31 µM [rising, partial curve, poor fit].
On to `Cc1csc(NC(=O)CN(C)S(=O)(=O)c2cccc3cccnc23)n1`, for which the AC50 runs as follows: under setting [2], 0.92 µM [rising, partial curve]; under setting [1], 1.46 µM [rising, partial curve].
For `Cc1cc(NC(=O)c2ccc3c(c2)C(=O)N(C2CCCCC2)C3=O)no1`, the cell number change is -1.02%. The AC50 under setting [1] was 16.4 µM [falling, partial curve].
As for `CCOc1ccccc1NC(=O)C(OC(=O)c1cc(C)oc1C)c1ccccc1` (stereo not given), the cell number change turned out to be 5.65%. Also, under setting [1], the AC50 is 2.06 µM [falling, single point].
`O=C(NCc1nc(-c2ccc(Cl)cc2)no1)c1ccco1`: the cell number change is -13.2%. Moreover, under setting [1], the AC50 is 2.06 µM [falling, partial curve].
As to `Cc1cccc(OCCCn2c(CO)nc3ccccc32)c1`, the cell number change is 25.5%. Also, the AC50 under setting [1] is 2.91 µM [rising, full curve].
In the case of `CCCCOC(=O)c1ccc(NC(=O)CSCc2n[nH]c(=O)[nH]2)cc1`, the half-maximal activity concentration (AC50) under setting [1] was 0.146 µM [rising, partial curve, poor fit].
Regarding `COc1ccccc1C(=O)Nc1ccnn1C1CCN(C(=O)c2cnsn2)CC1`, the cell number change was -6.58%. For the same molecule, under setting [1], the AC50 was 16.4 µM [falling, single point].
Turning to `CN1c2ccccc2-c2nc3ccccc3n2C1c1ccco1` (stereo not given), the cell number change was -17.5%. In addition, the AC50 under setting [1] was 0.13 µM [rising, full curve, poor fit].
`Cc1ccccc1C(=O)Nc1nnc(-c2ccco2)o1`: the cell number change came out at 59.7%. Under setting [2], the AC50 was 3.26 µM [falling, single point]. Also, the AC50 under setting [1] was 4.11 µM [falling, single point].
Regarding `CC(C)COc1ncnc2c1sc1nc3c(cc12)COC(C)(C)C3`, the cell number change was -4.44%. Also, under setting [1], the half-maximal activity concentration (AC50) was 0.13 µM [falling, full curve, poor fit].
With `O=C(c1cc2c(s1)CCC2)N1CCN(c2ccccc2)CC1`, the cell number change came to 29.3%. Further, under setting [2], the AC50 is 2.91 µM [rising, full curve, poor fit].
Regarding `CSc1ccc(NS(=O)(=O)c2ccc(-n3cnnn3)cc2)cc1`, the cell number change is -10.3%.
Still for that read-out and setting: for `O=C1c2cccc3cccc(c23)C(=O)N1CCCSc1ncn[nH]1` the value was 27.2%.
With `CC(C)N(Cc1nc(-c2ccccc2)no1)C(=O)C1CCCCC1`, the cell number change is 101%. Also, the AC50 under setting [2] was 13 µM [rising, partial curve]. For the same molecule, under setting [1], the AC50 was 16.4 µM [rising, partial curve].
Turning to `CCN(c1ccccc1)S(=O)(=O)c1cc(C(=O)Nc2ccc(Br)cc2)ccc1F`, the cell number change worked out at 1.23%. Further, the AC50 under setting [1] is 3.26 µM [rising, partial curve, poor fit].
As to `Cc1ccc(C2(C)NC(=O)N(CC(=O)N(Cc3ccccc3)C(C)(C)C)C2=O)cc1` (stereo not given), the cell number change is 4.17%. In addition, the AC50 under setting [1] was 0.116 µM [rising, full curve, poor fit].
For the molecule `Cc1cc(C(=O)N(C)C2CCCCC2)no1`, the cell number change worked out at 15.8%. Further, the AC50 under setting [2] is 0.731 µM [rising, full curve, poor fit].
Turning to `COc1ccc(CCN(C(=O)c2snc(C(N)=O)c2N)C(C)C(=O)NC2CCCCC2)cc1OC` (stereo not given), the cell number change is -6.41%.
For `O=C(CSc1nnnn1-c1ccc(F)cc1)Nc1ccc(N2CCOCC2)c(Cl)c1`, the cell number change worked out at 9.97%.
The same measure, in the same setting: for `COc1ccccc1NC(=O)Oc1ccc(NC(=O)c2ccco2)cc1` the value was 1.29%.
Take `Cc1cc(-c2ccc(NC(=O)[C@@H]3CCCC[C@@H]3C(=O)O)c(C)c2)ccc1NC(=O)[C@@H]1CCCC[C@@H]1C(=O)O`: the cell number change came to 59.6%.
On to `CCC1CCCCN1C(=O)CSc1nnc2nc(C)cc(C)n12` (stereo not given), for which the cell number change is 0.746%. Moreover, the AC50 under setting [1] is 4.11 µM [falling, partial curve, poor fit].
In the case of `COC(=O)CN1C(=S)N(Cc2ccccc2)C(=O)C1CC(=O)Nc1ccc(OC)cc1` (stereo not given), the cell number change amounted to 38.7%. Under setting [2], the AC50 was 29.1 µM [rising, single point].
Turning to `Cc1cc(C)c(S(=O)(=O)N2CCOCC2)c(C)c1N(C)S(=O)(=O)c1ccccc1`, the cell number change is -47.4%. Besides, under setting [2], the AC50 was 8.2 µM [falling, partial curve]. Moreover, the AC50 under setting [1] was 1.46 µM [falling, partial curve].
On to `COCc1nnc(NC(=O)c2c(-c3c(Cl)cccc3Cl)noc2C)s1`, for which the cell number change amounted to 12.6%.
In the case of `COc1cc2cc(CCCOC(=O)c3cccc(Br)c3)oc(=O)c2cc1OC`, the cell number change was -24%. Under setting [1], the AC50 was 0.00517 µM [rising, full curve, poor fit].
Turning to `COc1cccc(NC(=O)CN(C)C(=O)c2ccc3c(c2)CC(c2ccccc2)OC3=O)c1` (stereo not given), the cell number change was -10.3%. The AC50 under setting [1] is 3.26 µM [rising, partial curve, poor fit].
With `O=C1CC(N2CCC(c3nc4ccccc4o3)CC2)C(=O)N1c1cc(Cl)cc(Cl)c1` (stereo not given), the cell number change amounted to 117%. Besides, under setting [2], the AC50 was 6.51 µM [rising, full curve]. Further, under setting [1], the AC50 was 29.1 µM [falling, single point].
In the case of `CCOc1ccc(C(=O)CCC(=O)N2CCN(S(=O)(=O)c3cccc(F)c3)CC2)cc1`, the cell number change was 53%. Under setting [2], the AC50 is 29.1 µM [rising, single point]. Besides, the AC50 under setting [1] was 29.1 µM [rising, single point].
